Patent KR20160093503A
Results are given in words; binding and its absence hold for the method and conditions named. Some binding calls cover weakened binding; strength is not graded here.

Experiments:
[1] = molecular target: T1, CRS (Cysteinyl-tRNA synthetase), purified recombinant antigen (human) (UniProt P49589); assay: sandwich ELISA, scFv coated as capture antibody, rabbit polyclonal anti-CRS as detection antibody, anti-rabbit IgG-HRP
T1 sequence (looked up): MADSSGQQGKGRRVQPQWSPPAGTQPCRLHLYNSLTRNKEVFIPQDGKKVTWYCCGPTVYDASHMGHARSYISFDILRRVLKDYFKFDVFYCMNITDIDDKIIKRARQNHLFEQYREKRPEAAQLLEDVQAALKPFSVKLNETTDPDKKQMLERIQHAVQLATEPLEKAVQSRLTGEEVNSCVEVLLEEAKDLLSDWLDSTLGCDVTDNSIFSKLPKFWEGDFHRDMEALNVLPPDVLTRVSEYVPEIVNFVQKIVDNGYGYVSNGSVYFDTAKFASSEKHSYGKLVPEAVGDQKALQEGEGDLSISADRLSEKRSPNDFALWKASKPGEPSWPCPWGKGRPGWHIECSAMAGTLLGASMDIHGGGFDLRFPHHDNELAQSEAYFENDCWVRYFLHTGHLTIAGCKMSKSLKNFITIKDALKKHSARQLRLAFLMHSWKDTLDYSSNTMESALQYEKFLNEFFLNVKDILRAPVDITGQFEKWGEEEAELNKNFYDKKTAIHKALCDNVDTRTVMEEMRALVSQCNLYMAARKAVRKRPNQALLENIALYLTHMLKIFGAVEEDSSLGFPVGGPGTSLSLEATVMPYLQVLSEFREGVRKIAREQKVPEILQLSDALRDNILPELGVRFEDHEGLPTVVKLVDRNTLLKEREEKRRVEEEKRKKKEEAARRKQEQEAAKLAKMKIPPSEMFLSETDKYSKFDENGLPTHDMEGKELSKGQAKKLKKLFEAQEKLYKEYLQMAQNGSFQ

[2] = molecular target: T2, CRS endogenously expressed in human cells (HeLa cell lysate) (human) (UniProt P49589); assay: western blot of HeLa cell lysate, scFv from periplasmic extract, anti-HA-HRP detection
T2 sequence (looked up): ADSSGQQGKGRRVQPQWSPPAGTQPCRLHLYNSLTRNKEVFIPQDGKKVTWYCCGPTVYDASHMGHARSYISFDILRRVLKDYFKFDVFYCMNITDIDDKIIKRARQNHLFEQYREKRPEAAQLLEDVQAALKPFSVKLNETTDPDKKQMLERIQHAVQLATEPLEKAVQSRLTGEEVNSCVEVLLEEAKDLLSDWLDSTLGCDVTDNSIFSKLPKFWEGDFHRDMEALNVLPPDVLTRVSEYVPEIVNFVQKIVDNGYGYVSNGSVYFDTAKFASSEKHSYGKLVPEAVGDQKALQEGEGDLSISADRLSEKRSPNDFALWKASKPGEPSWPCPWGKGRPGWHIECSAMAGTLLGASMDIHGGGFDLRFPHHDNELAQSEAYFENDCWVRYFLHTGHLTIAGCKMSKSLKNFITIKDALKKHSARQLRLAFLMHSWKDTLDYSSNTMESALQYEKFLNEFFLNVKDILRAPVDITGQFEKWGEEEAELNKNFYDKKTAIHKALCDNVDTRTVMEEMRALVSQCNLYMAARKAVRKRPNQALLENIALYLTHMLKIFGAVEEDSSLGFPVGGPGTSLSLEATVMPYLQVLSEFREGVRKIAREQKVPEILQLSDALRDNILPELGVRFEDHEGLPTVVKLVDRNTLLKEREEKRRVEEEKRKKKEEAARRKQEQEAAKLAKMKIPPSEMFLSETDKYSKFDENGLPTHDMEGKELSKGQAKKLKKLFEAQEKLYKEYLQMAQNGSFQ

[3] = molecular target: T1, CRS (Cysteinyl-tRNA synthetase), purified recombinant antigen (human); assay: Luminex multiplex bead assay, CRS coupled to beads, anti-HA-biotin / SA-PE detection

Measured: binding

B1: anti-CRS scFv Biocon-K1 (scFv)
scFv: EVQLLESGGGLVQPVGSLRLSCAASGFTFSNYAMSWVRQAPGKGLEWVSWIYSKGRSTYYGDSAKGRFTISRDNSKNTLYLQMNSLRAEDTAVYYCAKRDNAFDYWGQGTLVTVSSGGGGSGGGGSGGGGSQSVLTQPPSASGTPGQRVTISCSGSSSNIGNNYVYWYQQLPGTAPKLLIYADSQRPSGVPDRFSGSKSGTSASLAISGLRSEDEADYYCGAWDSSLNGYVFGGGTKLTVL
binds: all assays above
